In doi:10.1101/610980:
Where two headings read alike, the source gives them in different places. Results are given in words; binding and its absence hold for the method and conditions named. In cells and extracts the contact can be indirect. Some binding calls cover weakened binding; strength is not graded here. For part of these data: Tags and fused reporters may be left off the sequences shown. Blank lines part the entries; values can stand above or below the molecule they belong to.

Amino acid sequences for entries named in this document (tags omitted).
UniProt P23201: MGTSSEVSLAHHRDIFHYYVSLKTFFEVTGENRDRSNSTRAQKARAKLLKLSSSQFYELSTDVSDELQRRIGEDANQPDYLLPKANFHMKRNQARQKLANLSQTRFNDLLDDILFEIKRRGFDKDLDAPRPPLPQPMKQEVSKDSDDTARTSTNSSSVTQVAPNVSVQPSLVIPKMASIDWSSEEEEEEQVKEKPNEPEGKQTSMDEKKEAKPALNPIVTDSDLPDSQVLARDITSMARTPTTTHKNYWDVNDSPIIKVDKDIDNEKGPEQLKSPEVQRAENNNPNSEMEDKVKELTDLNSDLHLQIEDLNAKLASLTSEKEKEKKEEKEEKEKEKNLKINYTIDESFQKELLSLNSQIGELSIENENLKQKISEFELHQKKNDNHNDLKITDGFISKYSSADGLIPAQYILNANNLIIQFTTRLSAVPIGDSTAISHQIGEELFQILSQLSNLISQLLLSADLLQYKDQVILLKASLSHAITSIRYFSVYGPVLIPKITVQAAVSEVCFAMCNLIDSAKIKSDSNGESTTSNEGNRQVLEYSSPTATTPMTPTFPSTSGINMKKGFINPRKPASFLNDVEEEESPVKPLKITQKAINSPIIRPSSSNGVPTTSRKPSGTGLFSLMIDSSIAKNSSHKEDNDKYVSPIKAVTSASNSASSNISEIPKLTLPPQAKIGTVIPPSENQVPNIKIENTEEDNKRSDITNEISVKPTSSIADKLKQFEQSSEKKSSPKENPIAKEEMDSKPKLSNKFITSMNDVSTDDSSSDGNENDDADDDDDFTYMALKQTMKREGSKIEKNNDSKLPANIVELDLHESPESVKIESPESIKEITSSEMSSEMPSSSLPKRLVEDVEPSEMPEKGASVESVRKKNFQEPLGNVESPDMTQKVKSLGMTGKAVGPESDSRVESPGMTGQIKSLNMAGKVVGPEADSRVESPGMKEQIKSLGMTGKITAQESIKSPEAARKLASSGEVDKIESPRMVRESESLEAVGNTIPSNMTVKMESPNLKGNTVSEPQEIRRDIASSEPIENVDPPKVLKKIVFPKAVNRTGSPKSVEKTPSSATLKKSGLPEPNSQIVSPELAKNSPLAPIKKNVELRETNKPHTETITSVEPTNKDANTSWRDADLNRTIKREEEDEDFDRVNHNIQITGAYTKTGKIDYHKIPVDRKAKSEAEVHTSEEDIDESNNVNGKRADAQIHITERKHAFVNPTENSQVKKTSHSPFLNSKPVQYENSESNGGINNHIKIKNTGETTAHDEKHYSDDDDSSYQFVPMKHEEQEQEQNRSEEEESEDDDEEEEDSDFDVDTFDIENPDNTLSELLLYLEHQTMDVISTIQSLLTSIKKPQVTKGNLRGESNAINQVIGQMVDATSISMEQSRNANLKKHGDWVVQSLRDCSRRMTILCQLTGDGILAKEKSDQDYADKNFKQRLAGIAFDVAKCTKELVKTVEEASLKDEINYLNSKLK

Key:
[1] = target: T1, GST-Bud6_(1-364) (S. cerevisiae) (UniProt P41697); assay: pull-down
T1 sequence: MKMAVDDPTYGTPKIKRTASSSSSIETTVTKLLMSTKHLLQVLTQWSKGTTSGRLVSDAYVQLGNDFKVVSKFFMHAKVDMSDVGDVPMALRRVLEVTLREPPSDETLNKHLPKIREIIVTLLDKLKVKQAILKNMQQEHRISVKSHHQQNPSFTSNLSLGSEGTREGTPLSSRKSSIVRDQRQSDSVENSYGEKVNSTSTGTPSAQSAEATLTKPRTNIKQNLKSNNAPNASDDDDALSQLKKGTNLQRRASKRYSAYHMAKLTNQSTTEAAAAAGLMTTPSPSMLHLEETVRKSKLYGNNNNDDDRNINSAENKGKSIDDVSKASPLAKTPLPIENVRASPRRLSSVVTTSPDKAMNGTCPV

[2] = target: T2, GST-Bud6_(1-141) (S. cerevisiae) (UniProt P41697); assay: pull-down
T2 sequence: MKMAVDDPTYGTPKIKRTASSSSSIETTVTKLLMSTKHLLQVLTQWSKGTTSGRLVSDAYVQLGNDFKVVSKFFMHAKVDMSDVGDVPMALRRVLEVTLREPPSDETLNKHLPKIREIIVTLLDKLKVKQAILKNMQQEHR

[3] = target: Aip5CRU (full-length Aip5 fused to C-terminal Ubiquitin-R (arginine)-Ura3) (S. cerevisiae) (UniProt P43597); assay: split reporter
[4] = target: Aip5CRU (full-length Aip5 fused to C-terminal Ubiquitin-R (arginine)-Ura3) (S. cerevisiae) (UniProt P43597); assay: split reporter; remark: listed apart in the source
[5] = target: Aip5 lacking the N-terminal 300 amino acids, as CRU fusion (S. cerevisiae) (UniProt P43597); assay: split reporter
[6] = target: Aip5_(Δ1000-1125) CRU (S. cerevisiae) (UniProt P43597); assay: split reporter
[7] = target: T3, N-terminal 300 amino acids of Aip5 as CRU fusion (S. cerevisiae) (UniProt P43597); assay: split reporter
T3 sequence: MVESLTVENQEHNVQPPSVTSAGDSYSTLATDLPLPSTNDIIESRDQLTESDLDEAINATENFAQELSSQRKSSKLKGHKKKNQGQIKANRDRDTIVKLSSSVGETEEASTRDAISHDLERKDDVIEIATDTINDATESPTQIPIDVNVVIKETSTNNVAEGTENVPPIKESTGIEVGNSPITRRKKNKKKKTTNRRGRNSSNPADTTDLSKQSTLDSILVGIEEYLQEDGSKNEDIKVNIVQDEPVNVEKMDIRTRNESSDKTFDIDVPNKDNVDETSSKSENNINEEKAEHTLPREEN

[8] = target: T4, Aip5_(1000-1131) as CRU fusion (S. cerevisiae) (UniProt P43597); assay: split reporter
T4 sequence: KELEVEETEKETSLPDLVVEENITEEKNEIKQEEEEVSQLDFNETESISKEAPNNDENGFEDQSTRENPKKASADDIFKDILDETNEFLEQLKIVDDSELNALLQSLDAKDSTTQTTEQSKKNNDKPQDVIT

[9] = target: Aip5CRU (full-length Aip5 fused to C-terminal Ubiquitin-R (arginine)-Ura3) (S. cerevisiae) (UniProt P43597); assay: split reporter; remark: listed apart in the source
[10] = target: Aip5_(Δ1000-1125) CRU (S. cerevisiae) (UniProt P43597); assay: split reporter; remark: listed apart in the source
[11] = target: Aip5_(1000-end)CRU (S. cerevisiae) (UniProt P43597); assay: split reporter

Molecule: His6-Aip5_(1000-end) (from UniProt P43597 1000-1233) (domain or fragment)
- binding [1]: binds
- binding [2]: binds

B1: Nub-Bud6 (protein, UniProt P41697 1-788)
chain: MKMAVDDPTYGTPKIKRTASSSSSIETTVTKLLMSTKHLLQVLTQWSKGTTSGRLVSDAYVQLGNDFKVVSKFFMHAKVDMSDVGDVPMALRRVLEVTLREPPSDETLNKHLPKIREIIVTLLDKLKVKQAILKNMQQEHRISVKSHHQQNPSFTSNLSLGSEGTREGTPLSSRKSSIVRDQRQSDSVENSYGEKVNSTSTGTPSAQSAEATLTKPRTNIKQNLKSNNAPNASDDDDALSQLKKGTNLQRRASKRYSAYHMAKLTNQSTTEAAAAAGLMTTPSPSMLHLEETVRKSKLYGNNNNDDDRNINSAENKGKSIDDVSKASPLAKTPLPIENVRASPRRLSSVVTTSPDKAMNGTCPVFLRIGDKTKKCHVQLPTTKNALRLLFIERFAYSPGANSFPDIYIMDPQYGVFYELEELNLLDIKEGFVIELKLEENPNNTIKEFIDTVKMEISNSQNDIIRHLKEMSFGSAISGKQTEVLPQPGLEANKHDLVGQNKKDDDKTIKDIQYELGKIKQVHNINRSNINETIFNILRKVDNFKSLSFSAKNSSNRMYMEKSQTELGDLSDTLLSKVDDLQDVIEIMRKDVAERRSQPAKKKLETVSKDLENAQADVLKLQEFIDTEKPHWKKTWEAELDKVCEEQQFLTLQEELILDLKEDLGKALETFDLIKLCCEEQEKNPSRSKSNPILPIMRPGTFNQVREQVMVAVQSLNPDHDSRVEAIDKAEKMWEMERKLKASNEFDDELENFVGNSNLKKSGGFEEVERIRKQKDEANLRAYFGPGFT
- binding [3]: binds
- binding [8]: binds
- binding [9]: binds
- binding [10]: no binding

The next lines start with the values.

- binding [3]: binds
- binding [4]: binds
- binding [5]: no binding
- binding [6]: binds
- binding [7]: binds
Molecule: Nub-Spa2 (from UniProt P23201 1-1466)

- binding [11]: binds
B2: Nub-Bud6_(1-141) (domain or fragment, UniProt P41697 1-141)
chain: T2 sequence
